The structures appear in SMILES notation. Where “and” joins values, the source holds several entries; their conditions need not be identical. Equal values may be shown once. Structures were worked out from names or drawings and are uncertain.

Sequences of proteins named here, by UniProt entry; tags and fusion partners are left off.
UniProt Q9Y5Y9, whole entry: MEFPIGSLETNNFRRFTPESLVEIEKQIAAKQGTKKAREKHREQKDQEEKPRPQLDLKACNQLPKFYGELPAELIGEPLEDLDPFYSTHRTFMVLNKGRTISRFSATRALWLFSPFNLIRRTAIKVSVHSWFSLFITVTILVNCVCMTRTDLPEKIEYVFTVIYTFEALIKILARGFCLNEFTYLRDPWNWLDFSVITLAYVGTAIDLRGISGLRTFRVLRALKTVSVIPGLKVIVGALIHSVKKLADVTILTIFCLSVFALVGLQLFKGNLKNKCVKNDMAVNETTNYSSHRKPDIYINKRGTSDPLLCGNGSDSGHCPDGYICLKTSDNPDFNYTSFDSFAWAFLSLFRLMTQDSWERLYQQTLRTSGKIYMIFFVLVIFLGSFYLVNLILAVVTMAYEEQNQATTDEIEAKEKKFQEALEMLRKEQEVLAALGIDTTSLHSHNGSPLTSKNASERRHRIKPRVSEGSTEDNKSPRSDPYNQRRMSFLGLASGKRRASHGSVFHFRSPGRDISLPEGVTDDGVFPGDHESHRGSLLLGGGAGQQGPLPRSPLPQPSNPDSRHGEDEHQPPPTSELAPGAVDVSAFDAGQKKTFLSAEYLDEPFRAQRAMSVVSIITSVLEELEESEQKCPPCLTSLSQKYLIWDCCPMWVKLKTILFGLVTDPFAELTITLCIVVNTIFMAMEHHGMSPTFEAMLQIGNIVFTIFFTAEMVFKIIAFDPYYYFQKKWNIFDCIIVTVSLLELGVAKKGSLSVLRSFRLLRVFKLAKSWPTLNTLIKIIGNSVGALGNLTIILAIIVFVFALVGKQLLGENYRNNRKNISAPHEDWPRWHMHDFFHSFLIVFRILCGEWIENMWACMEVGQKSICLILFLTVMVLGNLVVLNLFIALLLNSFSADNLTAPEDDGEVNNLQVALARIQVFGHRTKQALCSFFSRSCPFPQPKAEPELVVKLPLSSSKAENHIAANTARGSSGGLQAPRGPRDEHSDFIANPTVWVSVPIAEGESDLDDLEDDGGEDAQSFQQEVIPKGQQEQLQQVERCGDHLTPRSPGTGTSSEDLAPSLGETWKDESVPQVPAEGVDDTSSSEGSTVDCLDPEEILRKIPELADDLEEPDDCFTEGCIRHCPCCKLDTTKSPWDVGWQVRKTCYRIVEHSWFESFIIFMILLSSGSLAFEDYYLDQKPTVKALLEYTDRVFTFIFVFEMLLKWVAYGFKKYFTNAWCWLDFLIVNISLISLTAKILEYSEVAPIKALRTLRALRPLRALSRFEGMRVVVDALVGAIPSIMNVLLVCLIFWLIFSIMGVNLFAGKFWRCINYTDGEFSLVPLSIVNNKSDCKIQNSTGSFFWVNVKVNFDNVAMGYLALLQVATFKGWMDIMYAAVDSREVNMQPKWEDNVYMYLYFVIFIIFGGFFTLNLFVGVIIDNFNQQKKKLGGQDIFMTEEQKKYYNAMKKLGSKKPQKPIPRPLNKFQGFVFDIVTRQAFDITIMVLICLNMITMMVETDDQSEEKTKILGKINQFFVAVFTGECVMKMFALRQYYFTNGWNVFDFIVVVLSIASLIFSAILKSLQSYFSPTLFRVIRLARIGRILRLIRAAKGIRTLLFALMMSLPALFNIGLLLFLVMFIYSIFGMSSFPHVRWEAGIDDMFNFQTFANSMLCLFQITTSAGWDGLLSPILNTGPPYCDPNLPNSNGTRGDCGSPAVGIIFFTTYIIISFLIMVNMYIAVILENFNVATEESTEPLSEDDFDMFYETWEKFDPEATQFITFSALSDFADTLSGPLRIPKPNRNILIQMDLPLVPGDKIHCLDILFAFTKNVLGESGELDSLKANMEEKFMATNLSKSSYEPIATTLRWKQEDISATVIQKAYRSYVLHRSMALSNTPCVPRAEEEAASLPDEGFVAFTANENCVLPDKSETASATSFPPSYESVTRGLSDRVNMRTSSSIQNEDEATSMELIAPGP

This assay addresses human Nav1.8 (hNav1.8) ion channel (Homo sapiens, UniProt Q9Y5Y9). Nature of the assay: Nav1.8 channel inhibition, estimated IC50 (one or more of: fluorescence inhibition assay, PatchXpress, IonFlux HT automated patch clamp). As to conditions: read-out: Activity range (estimated IC50); HEK293 cells stably expressing hNav1.8; method used per compound not stated. As for the experimental part:
The ability of pyridine carboxamide derivatives exemplified above to inhibit the Nav1.8 channel was determined using one or more of the methods described below.
HEK Nav1.8 β1/β2 Stably Expressing Cell Line
A HEK293 cell line stably expressing the human Nav1.8 (hNav1.8) ion channel with β1/β2 subunits was constructed. The cell line is suitable for IC50 determination in fluorescence and electrophysiological based assays. It is also suitable to form mechanism of action pharmacology studies in electrophysiological assays. […]
Nav 1.8 Fluorescence Inhibition Assay […]
On the day of assay, plates were washed to remove cell culture media using 2K EBSS buffer (135 mM NaCl, 2 mM KCl, 5 mM Glucose, 2 mM CaCl2), 1 mM MgCl2, 10 mM HEPES, pH 7.4). […] Plates are the transferred to a fluorescence plate reader (FLIPR™, Molecular Devices) for fluorescence measurement using an excitation wavelength of 490 nm and an emission wavelength of 565 nm. […] The peak change in fluorescence relative to negative and positive control wells was calculated and fit with a logistic equation to determine IC50. […]
HEK-Nav1.8 β1/β2 cells were recorded in whole cell patch-clamp using the PatchXpress automated patch clamp platforms (Molecular Devices). […]
Nav1.8 channel variants were evaluated using Protocol 1 (FIG. 2) in which cells were initially voltage clamped at a holding potential of −100 mV to maintain Nav1.8 in a closed resting state. […]

A word on the IC50: it is the concentration that inhibits the measured activity by half. With `O=C(Nc1ccnc(Cl)c1)c1cc(C(F)(F)F)cnc1Oc1ccc(OC(F)(F)F)cc1Cl`, the IC50 was > 1000 nM and 500 to 1000 nM.

(Values after patent US12234221B2, “Pyridine carboxamide compounds for inhibiting NAV1.8” (Lieber Institute, Inc., priority 2018, dated 2025).)
